Results are given in words; binding and its absence hold for the method and conditions named. Binding seen in cells or lysates may run through a third protein. These calls come from enrichment with a bait or labelling near it, and not all partners need be listed. Sequences can lack the tags named with a protein.
Target: 3XMyc-RPRD1B wild type (full length) (human) (UniProt Q9NQG5)
Test: affinity purification with mass spectrometry; SILAC: tetracycline-induced 3XMyc-RPRD1B WT (heavy) and MT (light) in 293 Flp-In cells, anti-Myc immunoprecipitates from total lysate combined and analysed by MS

Amino acid sequences for entries named in this document (tags omitted).
UniProt P17844: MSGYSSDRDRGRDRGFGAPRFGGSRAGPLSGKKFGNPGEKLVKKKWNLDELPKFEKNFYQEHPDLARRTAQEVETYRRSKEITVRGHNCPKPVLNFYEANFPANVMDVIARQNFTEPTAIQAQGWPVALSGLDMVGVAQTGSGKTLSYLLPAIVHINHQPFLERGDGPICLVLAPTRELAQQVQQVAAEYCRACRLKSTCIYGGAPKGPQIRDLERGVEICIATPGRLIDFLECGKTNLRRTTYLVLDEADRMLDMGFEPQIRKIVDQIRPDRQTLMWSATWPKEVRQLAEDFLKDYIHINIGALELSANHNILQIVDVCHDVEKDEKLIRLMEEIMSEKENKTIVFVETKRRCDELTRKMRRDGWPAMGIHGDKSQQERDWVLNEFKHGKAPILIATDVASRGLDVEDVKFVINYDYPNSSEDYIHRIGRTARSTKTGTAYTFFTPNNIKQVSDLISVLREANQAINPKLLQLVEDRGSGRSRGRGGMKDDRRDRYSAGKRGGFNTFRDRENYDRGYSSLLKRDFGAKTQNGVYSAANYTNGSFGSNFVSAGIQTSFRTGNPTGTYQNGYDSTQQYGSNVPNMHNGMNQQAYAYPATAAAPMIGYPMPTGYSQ
UniProt Q02539: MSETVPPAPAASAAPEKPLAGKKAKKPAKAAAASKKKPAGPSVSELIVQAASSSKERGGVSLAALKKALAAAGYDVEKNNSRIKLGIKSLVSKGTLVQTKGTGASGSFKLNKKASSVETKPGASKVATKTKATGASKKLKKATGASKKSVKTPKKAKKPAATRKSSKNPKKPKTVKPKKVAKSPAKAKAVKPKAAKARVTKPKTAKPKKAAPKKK
UniProt Q14978: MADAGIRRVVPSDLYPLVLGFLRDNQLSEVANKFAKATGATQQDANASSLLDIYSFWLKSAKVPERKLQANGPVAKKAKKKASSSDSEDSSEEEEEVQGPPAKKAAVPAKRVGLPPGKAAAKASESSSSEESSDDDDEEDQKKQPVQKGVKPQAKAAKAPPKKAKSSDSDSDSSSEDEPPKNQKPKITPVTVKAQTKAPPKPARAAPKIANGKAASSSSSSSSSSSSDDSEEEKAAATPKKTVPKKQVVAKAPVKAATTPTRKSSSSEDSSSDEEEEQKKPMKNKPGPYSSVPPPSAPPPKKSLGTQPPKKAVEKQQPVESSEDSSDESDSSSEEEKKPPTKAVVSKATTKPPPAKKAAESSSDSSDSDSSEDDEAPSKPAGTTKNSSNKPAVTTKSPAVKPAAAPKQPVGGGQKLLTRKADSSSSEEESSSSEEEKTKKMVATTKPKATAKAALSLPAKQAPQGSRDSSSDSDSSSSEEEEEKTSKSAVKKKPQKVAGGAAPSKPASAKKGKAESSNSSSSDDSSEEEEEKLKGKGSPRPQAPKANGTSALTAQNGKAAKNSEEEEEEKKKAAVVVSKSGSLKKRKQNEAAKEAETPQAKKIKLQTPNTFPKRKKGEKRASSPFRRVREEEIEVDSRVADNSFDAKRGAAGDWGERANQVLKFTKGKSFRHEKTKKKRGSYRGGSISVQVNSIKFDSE
UniProt P49790: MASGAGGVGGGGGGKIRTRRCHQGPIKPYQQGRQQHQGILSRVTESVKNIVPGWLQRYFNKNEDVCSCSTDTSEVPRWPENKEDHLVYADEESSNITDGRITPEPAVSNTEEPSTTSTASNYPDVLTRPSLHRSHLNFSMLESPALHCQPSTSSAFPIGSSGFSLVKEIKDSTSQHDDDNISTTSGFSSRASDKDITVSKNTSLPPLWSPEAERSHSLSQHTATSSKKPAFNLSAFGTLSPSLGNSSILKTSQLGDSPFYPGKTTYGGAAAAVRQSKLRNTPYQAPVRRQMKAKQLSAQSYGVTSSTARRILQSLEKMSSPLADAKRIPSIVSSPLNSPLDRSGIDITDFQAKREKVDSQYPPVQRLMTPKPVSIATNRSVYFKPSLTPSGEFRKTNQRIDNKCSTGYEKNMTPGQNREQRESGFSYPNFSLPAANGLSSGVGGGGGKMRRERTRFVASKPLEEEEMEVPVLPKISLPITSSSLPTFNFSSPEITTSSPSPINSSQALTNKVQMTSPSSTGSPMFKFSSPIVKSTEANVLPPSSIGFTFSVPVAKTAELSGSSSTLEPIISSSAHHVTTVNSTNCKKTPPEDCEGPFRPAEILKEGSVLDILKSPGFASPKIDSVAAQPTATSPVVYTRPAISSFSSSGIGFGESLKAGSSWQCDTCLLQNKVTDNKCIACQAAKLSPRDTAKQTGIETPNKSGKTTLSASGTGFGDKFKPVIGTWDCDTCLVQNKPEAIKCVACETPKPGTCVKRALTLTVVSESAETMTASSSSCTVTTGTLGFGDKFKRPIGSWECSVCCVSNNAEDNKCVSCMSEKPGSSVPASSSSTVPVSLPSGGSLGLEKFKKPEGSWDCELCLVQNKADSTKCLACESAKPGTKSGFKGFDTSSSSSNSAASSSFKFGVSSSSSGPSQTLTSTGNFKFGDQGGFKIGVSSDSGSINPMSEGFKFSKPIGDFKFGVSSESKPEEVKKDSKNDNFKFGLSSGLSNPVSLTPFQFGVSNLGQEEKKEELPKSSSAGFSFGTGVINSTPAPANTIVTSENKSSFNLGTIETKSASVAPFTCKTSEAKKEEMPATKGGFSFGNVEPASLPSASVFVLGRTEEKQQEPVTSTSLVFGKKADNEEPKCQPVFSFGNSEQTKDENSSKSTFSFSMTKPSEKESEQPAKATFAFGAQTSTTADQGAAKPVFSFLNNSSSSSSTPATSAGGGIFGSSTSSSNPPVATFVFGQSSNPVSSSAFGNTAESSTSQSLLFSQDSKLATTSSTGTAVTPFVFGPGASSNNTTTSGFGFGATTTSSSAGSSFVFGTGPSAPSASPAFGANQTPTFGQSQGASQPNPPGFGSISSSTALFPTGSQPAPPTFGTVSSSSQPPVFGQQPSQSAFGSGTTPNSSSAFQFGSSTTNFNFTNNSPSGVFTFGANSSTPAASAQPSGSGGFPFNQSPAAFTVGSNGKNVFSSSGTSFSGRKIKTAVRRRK
UniProt P05387: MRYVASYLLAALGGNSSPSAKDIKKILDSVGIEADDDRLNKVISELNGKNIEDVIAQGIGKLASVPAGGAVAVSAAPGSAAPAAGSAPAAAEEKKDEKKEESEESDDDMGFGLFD
UniProt Q92922: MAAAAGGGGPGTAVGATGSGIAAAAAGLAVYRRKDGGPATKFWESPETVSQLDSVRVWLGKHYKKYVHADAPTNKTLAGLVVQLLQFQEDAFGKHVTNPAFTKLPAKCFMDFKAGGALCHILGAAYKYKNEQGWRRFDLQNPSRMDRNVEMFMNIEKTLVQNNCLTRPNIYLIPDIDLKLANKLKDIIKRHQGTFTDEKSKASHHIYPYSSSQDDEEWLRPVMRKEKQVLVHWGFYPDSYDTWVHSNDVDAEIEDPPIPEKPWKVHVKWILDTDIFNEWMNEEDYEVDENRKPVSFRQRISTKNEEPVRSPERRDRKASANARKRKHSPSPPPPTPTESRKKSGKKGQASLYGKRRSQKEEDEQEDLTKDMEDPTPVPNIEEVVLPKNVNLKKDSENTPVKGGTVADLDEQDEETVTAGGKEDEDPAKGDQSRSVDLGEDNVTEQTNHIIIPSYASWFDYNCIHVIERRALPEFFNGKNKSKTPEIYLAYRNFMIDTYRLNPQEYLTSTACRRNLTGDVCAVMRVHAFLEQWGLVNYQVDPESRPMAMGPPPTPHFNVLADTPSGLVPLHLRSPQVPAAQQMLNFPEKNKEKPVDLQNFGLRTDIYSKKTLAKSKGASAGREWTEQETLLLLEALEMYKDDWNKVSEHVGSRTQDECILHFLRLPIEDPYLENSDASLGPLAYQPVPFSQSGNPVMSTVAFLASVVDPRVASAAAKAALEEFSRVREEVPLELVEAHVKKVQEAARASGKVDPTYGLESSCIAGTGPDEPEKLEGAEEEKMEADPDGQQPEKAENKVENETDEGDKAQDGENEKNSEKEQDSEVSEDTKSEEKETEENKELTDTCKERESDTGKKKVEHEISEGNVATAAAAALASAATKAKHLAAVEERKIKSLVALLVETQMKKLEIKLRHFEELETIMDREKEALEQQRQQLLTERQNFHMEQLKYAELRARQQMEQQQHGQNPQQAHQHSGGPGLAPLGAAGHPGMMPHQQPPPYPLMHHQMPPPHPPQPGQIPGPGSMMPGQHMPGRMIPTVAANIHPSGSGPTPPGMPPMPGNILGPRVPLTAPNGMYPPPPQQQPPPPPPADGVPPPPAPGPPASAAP
UniProt P09012: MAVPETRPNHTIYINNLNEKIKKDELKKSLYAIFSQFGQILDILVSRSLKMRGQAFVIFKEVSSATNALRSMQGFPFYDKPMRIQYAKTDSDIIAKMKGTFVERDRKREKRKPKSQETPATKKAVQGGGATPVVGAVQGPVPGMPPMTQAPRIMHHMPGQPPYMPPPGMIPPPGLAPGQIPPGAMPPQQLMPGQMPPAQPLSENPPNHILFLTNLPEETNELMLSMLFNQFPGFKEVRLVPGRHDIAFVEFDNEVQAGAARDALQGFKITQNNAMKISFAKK
UniProt P62316: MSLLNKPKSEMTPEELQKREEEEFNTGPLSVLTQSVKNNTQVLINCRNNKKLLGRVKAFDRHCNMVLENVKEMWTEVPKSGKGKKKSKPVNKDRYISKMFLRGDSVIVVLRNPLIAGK
UniProt Q9HCJ0: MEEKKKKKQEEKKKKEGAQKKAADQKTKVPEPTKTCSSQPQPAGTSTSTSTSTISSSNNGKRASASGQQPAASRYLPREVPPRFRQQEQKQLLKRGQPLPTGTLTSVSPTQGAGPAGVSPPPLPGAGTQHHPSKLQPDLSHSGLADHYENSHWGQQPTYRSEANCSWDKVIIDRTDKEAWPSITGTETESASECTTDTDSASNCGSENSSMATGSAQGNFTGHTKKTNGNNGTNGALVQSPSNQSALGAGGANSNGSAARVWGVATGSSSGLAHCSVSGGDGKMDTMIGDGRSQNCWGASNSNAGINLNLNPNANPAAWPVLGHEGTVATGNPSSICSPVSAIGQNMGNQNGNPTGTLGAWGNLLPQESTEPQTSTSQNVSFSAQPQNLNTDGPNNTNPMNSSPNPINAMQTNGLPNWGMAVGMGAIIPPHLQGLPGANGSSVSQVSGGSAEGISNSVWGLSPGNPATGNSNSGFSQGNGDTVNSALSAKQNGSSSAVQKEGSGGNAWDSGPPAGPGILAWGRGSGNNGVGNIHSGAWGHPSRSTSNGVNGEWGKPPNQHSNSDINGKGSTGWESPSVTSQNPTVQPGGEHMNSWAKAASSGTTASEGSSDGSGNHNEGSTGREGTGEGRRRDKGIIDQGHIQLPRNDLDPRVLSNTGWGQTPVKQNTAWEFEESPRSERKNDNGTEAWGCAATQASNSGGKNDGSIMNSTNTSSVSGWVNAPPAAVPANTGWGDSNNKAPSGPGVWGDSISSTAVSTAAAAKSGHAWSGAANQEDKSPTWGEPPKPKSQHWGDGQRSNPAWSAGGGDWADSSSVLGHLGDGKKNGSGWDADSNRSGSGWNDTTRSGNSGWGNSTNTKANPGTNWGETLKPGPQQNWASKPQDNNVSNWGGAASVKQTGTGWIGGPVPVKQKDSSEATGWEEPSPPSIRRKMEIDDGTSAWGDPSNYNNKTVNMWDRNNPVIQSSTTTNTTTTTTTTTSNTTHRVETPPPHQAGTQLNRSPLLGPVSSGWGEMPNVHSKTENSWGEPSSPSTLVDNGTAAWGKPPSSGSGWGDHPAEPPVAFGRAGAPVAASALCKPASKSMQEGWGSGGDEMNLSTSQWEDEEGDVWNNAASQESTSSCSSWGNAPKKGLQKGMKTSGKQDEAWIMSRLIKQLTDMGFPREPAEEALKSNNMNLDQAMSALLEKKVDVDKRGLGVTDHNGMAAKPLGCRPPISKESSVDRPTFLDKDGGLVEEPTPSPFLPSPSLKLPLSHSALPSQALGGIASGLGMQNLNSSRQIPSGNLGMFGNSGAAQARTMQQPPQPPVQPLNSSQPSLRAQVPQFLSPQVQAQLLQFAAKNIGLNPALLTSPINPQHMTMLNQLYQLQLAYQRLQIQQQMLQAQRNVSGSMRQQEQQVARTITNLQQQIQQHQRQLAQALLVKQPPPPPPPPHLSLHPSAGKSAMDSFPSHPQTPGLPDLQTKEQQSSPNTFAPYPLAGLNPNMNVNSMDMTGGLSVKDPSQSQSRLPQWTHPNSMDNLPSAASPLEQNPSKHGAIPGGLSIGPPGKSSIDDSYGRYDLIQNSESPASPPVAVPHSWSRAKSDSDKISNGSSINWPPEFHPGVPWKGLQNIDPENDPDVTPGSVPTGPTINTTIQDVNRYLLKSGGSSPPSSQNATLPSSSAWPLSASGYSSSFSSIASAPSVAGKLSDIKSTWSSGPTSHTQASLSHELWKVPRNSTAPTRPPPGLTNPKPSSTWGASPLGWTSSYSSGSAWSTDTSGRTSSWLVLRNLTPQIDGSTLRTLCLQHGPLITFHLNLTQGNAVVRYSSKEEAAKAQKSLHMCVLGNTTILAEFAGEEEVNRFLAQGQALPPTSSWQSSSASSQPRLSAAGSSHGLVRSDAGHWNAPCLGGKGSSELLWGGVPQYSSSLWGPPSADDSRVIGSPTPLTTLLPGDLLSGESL

binding | Substance
binds | CNOT1 (from UniProt A5YKK6 1-2376)
binds | DDX3X (from UniProt O00571 1-662)
binds | DDX5 (HEK293) (from UniProt P17844 1-614)
binds | DDX17 (from UniProt Q92841 1-729)
binds | DPF2 (from UniProt Q92785 1-391)
binds | EIF2C1 (from UniProt Q9UL18 1-857)
binds | EIF2C2 (from UniProt Q9UKV8 1-859)
binds | EIF2C3 (from UniProt Q9H9G7 1-860)
binds | GTF2I (from UniProt P78347 1-998)
binds | HIST1H1A (from UniProt Q02539 1-215)
binds | HMGA1 (from UniProt P17096 1-107)
binds | NOLC1 (from UniProt Q14978 1-699)
binds | NUP98 (from UniProt P52948 1-880)
binds | NUP153 (from UniProt P49790 1-1475)
binds | PCBP1 (from UniProt Q15365 1-356)
binds | PCF11 (from UniProt O94913 1-1555)
binds | RPLP2 (from UniProt P05387 1-115)
binds | RUVBL1 (from UniProt Q9Y265 1-456)
binds | SF3B3 (from UniProt Q15393 1-1217)
binds | SMARCC1 (from UniProt Q92922 1-1105)
binds | SNRNP70 (from UniProt P08621 1-437)
binds | SNRPA (from UniProt P09012 1-282)
binds | SNRPD2 (from UniProt P62316 1-118)
binds | SNRPG (from UniProt P62308 1-76)
binds | TNRC6B (from UniProt Q9UPQ9 1-1833)
binds | TNRC6C (from UniProt Q9HCJ0 1-1936)
binds | TP53 (from UniProt P04637 1-393)
binds | ZNF638 (from UniProt Q14966 1-1978)

Source: PMC4627417
